Laboratory results as given in the supplement of paper PMC10849652.
The list shows a part of the results.

By UniProt entry, the sequences of proteins in these tests, tags left out. Where a name states a change or a piece, a line headed by the entry shows the natural chain unless it says otherwise.
UniProt Q9NYL9: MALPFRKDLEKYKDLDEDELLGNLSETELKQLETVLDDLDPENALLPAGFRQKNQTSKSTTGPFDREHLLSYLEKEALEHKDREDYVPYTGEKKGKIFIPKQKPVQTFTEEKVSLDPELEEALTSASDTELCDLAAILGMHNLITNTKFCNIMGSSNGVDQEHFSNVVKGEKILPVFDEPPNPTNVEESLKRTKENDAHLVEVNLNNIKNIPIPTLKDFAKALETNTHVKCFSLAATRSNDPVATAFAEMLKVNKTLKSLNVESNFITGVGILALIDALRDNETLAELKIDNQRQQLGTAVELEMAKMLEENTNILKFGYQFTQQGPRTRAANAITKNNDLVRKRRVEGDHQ
UniProt P17152: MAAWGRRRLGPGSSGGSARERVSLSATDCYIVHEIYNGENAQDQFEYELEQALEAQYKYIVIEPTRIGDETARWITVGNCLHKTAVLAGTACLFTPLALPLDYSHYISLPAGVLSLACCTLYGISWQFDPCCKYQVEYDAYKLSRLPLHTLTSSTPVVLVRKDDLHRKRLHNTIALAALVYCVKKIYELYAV
UniProt Q96I45: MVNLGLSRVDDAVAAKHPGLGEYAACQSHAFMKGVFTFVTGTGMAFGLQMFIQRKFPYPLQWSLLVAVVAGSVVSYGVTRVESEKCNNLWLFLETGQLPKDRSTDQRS
UniProt Q9NWH2: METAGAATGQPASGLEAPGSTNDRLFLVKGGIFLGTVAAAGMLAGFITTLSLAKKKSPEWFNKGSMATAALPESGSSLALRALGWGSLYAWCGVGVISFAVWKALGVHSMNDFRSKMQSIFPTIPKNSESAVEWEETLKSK
UniProt Q9BZW5, whole entry, looked up: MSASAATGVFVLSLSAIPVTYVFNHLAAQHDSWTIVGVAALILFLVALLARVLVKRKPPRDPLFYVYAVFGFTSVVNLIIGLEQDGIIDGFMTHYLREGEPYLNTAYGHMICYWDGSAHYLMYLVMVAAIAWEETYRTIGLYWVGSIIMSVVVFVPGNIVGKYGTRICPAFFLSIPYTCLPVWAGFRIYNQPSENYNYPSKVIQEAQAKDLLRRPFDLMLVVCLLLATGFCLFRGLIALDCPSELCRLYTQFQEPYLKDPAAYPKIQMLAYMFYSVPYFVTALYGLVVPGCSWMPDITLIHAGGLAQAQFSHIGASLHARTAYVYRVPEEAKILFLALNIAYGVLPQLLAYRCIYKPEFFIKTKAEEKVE
UniProt A5PLL7: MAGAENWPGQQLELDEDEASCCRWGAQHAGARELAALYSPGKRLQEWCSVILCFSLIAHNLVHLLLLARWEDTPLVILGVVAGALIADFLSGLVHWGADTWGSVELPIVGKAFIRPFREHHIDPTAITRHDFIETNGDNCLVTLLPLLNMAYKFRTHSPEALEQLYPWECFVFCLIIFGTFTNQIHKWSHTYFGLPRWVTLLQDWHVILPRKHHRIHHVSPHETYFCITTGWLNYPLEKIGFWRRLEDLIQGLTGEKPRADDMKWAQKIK
UniProt Q6NUQ4: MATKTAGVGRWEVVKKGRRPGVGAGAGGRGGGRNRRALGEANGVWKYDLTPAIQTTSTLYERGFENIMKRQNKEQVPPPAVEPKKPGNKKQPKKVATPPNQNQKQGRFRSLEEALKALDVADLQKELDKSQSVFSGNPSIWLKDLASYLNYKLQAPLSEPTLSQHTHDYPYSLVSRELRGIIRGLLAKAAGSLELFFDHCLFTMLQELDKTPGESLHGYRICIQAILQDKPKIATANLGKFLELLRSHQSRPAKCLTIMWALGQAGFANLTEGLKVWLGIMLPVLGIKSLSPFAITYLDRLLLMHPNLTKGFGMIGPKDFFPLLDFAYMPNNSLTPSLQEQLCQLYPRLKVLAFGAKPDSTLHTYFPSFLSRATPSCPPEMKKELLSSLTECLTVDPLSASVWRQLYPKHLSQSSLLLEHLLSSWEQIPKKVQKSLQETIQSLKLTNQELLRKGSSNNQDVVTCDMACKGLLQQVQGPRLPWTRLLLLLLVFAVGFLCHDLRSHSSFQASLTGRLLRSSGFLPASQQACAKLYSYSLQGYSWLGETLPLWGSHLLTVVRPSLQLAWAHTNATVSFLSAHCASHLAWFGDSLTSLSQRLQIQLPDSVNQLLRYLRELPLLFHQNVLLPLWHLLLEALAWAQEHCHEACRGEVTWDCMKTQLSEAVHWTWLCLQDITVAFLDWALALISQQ
UniProt Q9NVV0: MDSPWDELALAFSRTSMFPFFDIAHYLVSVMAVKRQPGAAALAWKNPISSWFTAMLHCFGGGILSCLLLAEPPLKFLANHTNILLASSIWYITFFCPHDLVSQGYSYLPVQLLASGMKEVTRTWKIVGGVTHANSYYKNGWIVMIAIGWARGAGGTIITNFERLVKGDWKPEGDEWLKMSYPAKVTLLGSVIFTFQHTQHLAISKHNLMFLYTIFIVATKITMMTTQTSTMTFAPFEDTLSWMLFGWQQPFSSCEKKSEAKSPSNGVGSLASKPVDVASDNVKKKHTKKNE
UniProt Q5BJF2, whole entry, looked up: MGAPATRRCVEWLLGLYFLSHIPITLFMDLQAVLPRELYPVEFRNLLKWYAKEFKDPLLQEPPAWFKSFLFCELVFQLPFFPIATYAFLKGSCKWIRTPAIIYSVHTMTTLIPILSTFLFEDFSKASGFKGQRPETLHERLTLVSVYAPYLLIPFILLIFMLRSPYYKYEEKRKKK
UniProt Q7Z7H5: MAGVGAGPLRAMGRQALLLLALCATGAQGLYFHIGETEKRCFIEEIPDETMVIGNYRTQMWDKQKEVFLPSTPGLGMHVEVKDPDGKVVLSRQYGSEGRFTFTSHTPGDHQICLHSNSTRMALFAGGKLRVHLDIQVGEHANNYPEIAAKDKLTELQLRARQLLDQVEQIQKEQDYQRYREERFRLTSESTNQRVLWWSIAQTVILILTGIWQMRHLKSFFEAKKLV
UniProt Q96JJ7: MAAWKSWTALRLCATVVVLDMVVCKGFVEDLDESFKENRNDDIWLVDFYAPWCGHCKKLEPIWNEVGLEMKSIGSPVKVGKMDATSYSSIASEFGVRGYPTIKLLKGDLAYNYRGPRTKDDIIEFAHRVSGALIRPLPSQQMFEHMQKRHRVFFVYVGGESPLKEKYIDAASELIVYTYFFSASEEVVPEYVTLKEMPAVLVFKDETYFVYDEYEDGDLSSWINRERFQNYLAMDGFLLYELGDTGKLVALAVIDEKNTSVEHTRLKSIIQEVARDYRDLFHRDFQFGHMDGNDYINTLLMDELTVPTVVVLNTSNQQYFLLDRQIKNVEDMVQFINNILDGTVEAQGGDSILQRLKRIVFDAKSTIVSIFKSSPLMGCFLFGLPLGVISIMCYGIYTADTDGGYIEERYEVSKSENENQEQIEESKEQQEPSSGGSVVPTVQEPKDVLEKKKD
UniProt Q9HC07: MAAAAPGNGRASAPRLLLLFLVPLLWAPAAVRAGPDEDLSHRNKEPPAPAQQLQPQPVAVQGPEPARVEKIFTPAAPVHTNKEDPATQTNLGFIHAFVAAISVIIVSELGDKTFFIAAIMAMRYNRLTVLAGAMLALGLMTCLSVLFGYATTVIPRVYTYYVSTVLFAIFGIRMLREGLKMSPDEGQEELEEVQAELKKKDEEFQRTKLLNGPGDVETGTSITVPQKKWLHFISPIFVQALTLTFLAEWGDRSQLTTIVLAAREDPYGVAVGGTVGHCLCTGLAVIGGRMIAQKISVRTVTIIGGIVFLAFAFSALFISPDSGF
UniProt Q9NX61: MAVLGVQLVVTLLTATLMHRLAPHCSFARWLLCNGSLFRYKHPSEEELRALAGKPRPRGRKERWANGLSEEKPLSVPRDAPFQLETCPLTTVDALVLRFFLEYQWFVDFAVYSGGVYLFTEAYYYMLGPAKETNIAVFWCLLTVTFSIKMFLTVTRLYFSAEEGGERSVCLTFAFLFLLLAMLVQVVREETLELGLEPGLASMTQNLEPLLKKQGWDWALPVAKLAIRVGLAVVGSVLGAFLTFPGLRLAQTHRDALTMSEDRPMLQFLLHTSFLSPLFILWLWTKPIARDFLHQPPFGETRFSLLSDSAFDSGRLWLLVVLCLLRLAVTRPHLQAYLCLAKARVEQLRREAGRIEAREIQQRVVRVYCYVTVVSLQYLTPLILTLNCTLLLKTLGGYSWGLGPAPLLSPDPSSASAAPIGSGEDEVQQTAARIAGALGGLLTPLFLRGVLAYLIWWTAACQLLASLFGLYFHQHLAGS
UniProt Q9HCN3: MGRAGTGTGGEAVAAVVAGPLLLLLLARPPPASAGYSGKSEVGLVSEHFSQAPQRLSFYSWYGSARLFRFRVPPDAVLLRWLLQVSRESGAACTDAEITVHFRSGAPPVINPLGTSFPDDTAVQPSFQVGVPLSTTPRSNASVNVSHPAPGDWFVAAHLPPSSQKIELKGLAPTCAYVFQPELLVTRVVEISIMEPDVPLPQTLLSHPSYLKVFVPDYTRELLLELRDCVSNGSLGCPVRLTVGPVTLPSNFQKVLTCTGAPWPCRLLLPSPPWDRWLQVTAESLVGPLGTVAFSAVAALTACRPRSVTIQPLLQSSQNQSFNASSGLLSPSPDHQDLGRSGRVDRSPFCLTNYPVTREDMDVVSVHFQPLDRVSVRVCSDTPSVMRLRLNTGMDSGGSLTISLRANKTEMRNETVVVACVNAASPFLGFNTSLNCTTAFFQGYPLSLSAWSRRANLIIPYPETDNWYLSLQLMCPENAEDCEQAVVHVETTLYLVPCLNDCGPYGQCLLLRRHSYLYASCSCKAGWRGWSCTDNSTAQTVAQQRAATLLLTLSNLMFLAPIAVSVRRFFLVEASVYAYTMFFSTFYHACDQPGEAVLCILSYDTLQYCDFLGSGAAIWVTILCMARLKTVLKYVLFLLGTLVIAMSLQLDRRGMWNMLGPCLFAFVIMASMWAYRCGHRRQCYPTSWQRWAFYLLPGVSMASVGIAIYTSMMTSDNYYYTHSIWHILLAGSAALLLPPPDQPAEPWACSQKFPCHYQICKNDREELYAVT
UniProt Q9BVX2: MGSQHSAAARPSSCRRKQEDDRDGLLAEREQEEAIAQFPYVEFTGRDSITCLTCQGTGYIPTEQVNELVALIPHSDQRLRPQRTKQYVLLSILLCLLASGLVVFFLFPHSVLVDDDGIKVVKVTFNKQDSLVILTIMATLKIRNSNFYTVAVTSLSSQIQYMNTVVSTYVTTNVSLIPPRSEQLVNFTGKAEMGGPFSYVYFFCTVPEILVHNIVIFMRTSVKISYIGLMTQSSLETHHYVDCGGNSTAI
UniProt Q9BUB7: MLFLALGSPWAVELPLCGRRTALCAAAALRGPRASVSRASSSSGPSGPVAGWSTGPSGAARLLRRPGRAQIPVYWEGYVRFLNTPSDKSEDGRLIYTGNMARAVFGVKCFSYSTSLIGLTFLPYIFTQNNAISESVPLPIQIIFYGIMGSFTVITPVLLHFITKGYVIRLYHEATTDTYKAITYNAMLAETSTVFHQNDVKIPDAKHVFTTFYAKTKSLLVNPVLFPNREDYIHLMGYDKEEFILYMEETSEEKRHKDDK

Experiments:
Experiment in all cases: log2 fold change, soluble protein after heating vs DMSO (PISA); higher = thermal stabilisation; K562 cells, 10 uM, 30 min; active = over 0.2 and 3.5 SD of the protein, either way, in both replicates (recomputed)
saracatinib = compound: CN1CCN(CCOc2cc(OC3CCOCC3)c3c(Nc4c(Cl)ccc5c4OCO5)ncnc3c2)CC1 [saracatinib]
Summary of the method: (§1)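 K562 cells at 2×10^6 cells/mL were treated with 10 μM compound for 30 min. Aliquots were heated for 3 min across 48°C-58°C, pooled, and extracted in PBS with 0.5% NP-40 at 4°C; soluble protein was the supernatant after 21,000xg for 90 min. Soluble protein was quantified by TMTpro 16plex LC-MS/MS with channel sums equalised, and reported as log2 fold change in thermal stability against DMSO controls, with values from duplicates.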

sotrastaurin = compound: CN1CCN(c2nc(C3=C(c4c[nH]c5ccccc45)C(=O)NC3=O)c3ccccc3n2)CC1 [sotrastaurin]
Summary of the method: as §1

alvocidib = compound: CN1CC[C@H](c2c(O)cc(O)c3c(=O)cc(-c4ccccc4Cl)oc23)[C@H](O)C1 [alvocidib]
Summary of the method: as §1

Tubastatin A = compound: CN1CCc2c(c3ccccc3n2Cc2ccc(C(=O)NO)cc2)C1 [Tubastatin A]
Summary of the method: as §1

[1] = compound: CNC(=O)C1=CC=CC=C1NC2=NC(=NC=C2Cl)NC3=C(C=C(C=C3)N4CCOCC4)OC
Summary of the method: as §1

defactinib = compound: CNC(=O)c1ccc(Nc2ncc(C(F)(F)F)c(NCc3nccnc3N(C)S(C)(=O)=O)n2)cc1 [defactinib]
Summary of the method: as §1

rucaparib = compound: CNCc1ccc(-c2[nH]c3cc(F)cc4c3c2CCNC4=O)cc1 [rucaparib]
Summary of the method: as §1

[2] = compound: CNc1nc(-c2ccc3c(N)n[nH]c3c2)cc(N2C[C@@H](C(=O)NC3CCCCC3)CC[C@H]2C)n1
Summary of the method: as §1

encorafenib = compound: COC(=O)N[C@@H](C)CNc1nccc(-c2cn(C(C)C)nc2-c2cc(Cl)cc(NS(C)(=O)=O)c2F)n1 [encorafenib]
Summary of the method: as §1

[3] = compound: COC(=O)[C@H](CCSC)NC(=O)C1=C(C=C(C=C1)NC[C@H](CS)N)C2=CC=CC=C2
Summary of the method: as §1

[4] = compound: COC1=CC=C(C=C1)CN2C=CC3=C2C=C(C=C3)C(=O)NO
Summary of the method: as §1

filanesib = compound: CON(C)C(=O)N1N=C(c2cc(F)ccc2F)S[C@@]1(CCCN)c1ccccc1 [filanesib]
Summary of the method: as §1

zotarolimus = compound: CO[C@H]1C[C@@H]2CC[C@@H](C)[C@@](O)(O2)C(=O)C(=O)N2CCCC[C@H]2C(=O)O[C@H]([C@H](C)C[C@@H]2CC[C@H](n3cnnn3)[C@H](OC)C2)CC(=O)[C@H](C)/C=C(\C)[C@@H](O)[C@@H](OC)C(=O)[C@H](C)C[C@H](C)/C=C/C=C/C=C/1C [zotarolimus]
Summary of the method: as §1

idasanutlin = compound: COc1cc(C(=O)O)ccc1NC(=O)[C@@H]1N[C@@H](CC(C)(C)C)[C@](C#N)(c2ccc(Cl)cc2F)[C@H]1c1cccc(Cl)c1F [idasanutlin]
Summary of the method: as §1

alisertib = compound: COc1cc(Nc2ncc3c(n2)-c2ccc(Cl)cc2C(c2c(F)cccc2OC)=NC3)ccc1C(=O)O [alisertib]
Summary of the method: as §1

[5] = compound: COc1cc2nc(-c3cc(F)ccc3O)nc(N[C@@H]3CNC[C@H]3C(C)(C)O)c2cc1OC
Summary of the method: as §1

gefitinib = compound: COc1cc2ncnc(Nc3ccc(F)c(Cl)c3)c2cc1OCCCN1CCOCC1 [gefitinib]
Summary of the method: as §1

[6] = compound: COc1cccc2cc(-c3nc([C@H]4CC[C@H](C(=O)O)CC4)n4ncnc(N)c34)[nH]c12
Summary of the method: as §1

lapatinib = compound: CS(=O)(=O)CCNCc1ccc(-c2ccc3ncnc(Nc4ccc(OCc5cccc(F)c5)c(Cl)c4)c3c2)o1 [lapatinib]
Summary of the method: as §1

pictilisib = compound: CS(=O)(=O)N1CCN(Cc2cc3nc(-c4cccc5[nH]ncc45)nc(N4CCOCC4)c3s2)CC1 [pictilisib]
Summary of the method: as §1

Row | Target | log2 fold change (saracatinib) | log2 fold change (sotrastaurin) | log2 fold change (alvocidib) | log2 fold change (Tubastatin A) | log2 fold change [1] | log2 fold change (defactinib) | log2 fold change (rucaparib) | log2 fold change [2] | log2 fold change (encorafenib) | log2 fold change [3] | log2 fold change [4] | log2 fold change (filanesib) | log2 fold change (zotarolimus) | log2 fold change (idasanutlin) | log2 fold change (alisertib) | log2 fold change [5] | log2 fold change (gefitinib) | log2 fold change [6] | log2 fold change (lapatinib) | log2 fold change (pictilisib)
1 | TMOD3 (UniProt Q9NYL9) | inactive: -0.016 | inactive: -0.072 | inactive: 0.009 | inactive: -0.003 | inactive: 0.014 | inactive: -0.073 | inactive: 0.141 | inactive: 0.042 | inactive: 0.058 | inactive: -0.033 | inactive: -0.006 | inactive: -0.019 | inactive: 0.061 | inactive: -0.003 | inactive: -0.008 | inactive: 0.012 | inactive: 0.03 | inactive: -0.034 | inactive: 0.037 | inactive: -0.032
2 | TMEM11 (UniProt P17152) | inactive: 0.042 | inactive: 0.004 | inactive: -0.069 | inactive: -0.058 | inactive: 0.071 | inactive: -0.07 | inactive: -0.105 | inactive: -0.058 | inactive: 0.062 | inactive: -0.023 | inactive: -0.039 | inactive: -0.053 | inactive: 0.024 | inactive: -0.01 | inactive: -0.116 | inactive: 0.012 | inactive: 0.071 | inactive: 0.059 | inactive: -0.002 | inactive: 0.07
3 | TMEM141 (UniProt Q96I45) | inactive: 0.092 | inactive: 0.073 | inactive: 0.002 | inactive: -0.002 | inactive: 0.048 | inactive: -0.046 | inactive: -0.061 | inactive: -0.107 | inactive: 0 | inactive: 0.076 | inactive: -0.092 | inactive: 0.035 | inactive: -0.074 | inactive: 0.06 | inactive: 0.092 | inactive: -0.01 | inactive: 0.117 | inactive: 0.112 | inactive: -0.028 | inactive: -0.129
4 | TMEM242 (UniProt Q9NWH2) | inactive: 0.1 | inactive: 0.039 | inactive: 0.04 | inactive: 0.065 | inactive: 0.038 | inactive: -0.056 | inactive: -0.016 | inactive: 0.014 | inactive: 0.023 | inactive: 0.079 | – | inactive: 0.076 | inactive: -0.069 | inactive: 0.102 | inactive: -0.043 | inactive: -0.034 | inactive: -0.089 | inactive: 0.121 | inactive: 0.041 | inactive: -0.032
5 | TM6SF1 (UniProt Q9BZW5) | inactive: -0.049 | inactive: -0.003 | inactive: -0.265 | inactive: 0.117 | inactive: 0.029 | inactive: 0.051 | – | inactive: -0.045 | – | inactive: 0.062 | inactive: 0.077 | inactive: -0.113 | inactive: -0.362 | inactive: -0.19 | inactive: 0.073 | inactive: 0.05 | inactive: 0.071 | inactive: 0.03 | inactive: 0.047 | inactive: -0.081
6 | TMEM189 (UniProt A5PLL7) | inactive: 0.133 | inactive: 0.007 | inactive: -0.011 | inactive: 0.143 | inactive: -0.136 | inactive: -0.017 | inactive: 0.022 | inactive: 0.043 | inactive: 0.009 | inactive: -0.022 | inactive: 0.069 | inactive: -0.067 | inactive: 0.011 | inactive: -0.05 | inactive: 0.022 | inactive: -0.015 | inactive: -0.042 | inactive: 0.035 | inactive: 0.053 | inactive: -0.058
7 | TMEM214 (UniProt Q6NUQ4) | inactive: -0.04 | inactive: 0.068 | – | inactive: 0.062 | inactive: -0.002 | inactive: -0.04 | inactive: 0.121 | inactive: 0.03 | inactive: 0.041 | inactive: -0.039 | inactive: -0.003 | inactive: 0.185 | inactive: -0.013 | inactive: -0.045 | inactive: -0.041 | active: 0.282 | inactive: -0.012 | inactive: -0.111 | inactive: 0.046 | inactive: -0.055
8 | TMEM38B (UniProt Q9NVV0) | inactive: 0.018 | inactive: 0.018 | inactive: 0.01 | inactive: 0 | inactive: -0.04 | inactive: -0.036 | inactive: 0.021 | inactive: -0.01 | inactive: -0.034 | inactive: 0.068 | inactive: -0.123 | inactive: 0.073 | inactive: -0.05 | inactive: -0.019 | inactive: -0.011 | inactive: -0.03 | inactive: 0.004 | inactive: 0.123 | inactive: -0.089 | inactive: 0.011
9 | TMEM97 (UniProt Q5BJF2) | inactive: 0.011 | inactive: 0.087 | inactive: 0.009 | inactive: 0.091 | inactive: 0.041 | inactive: -0.021 | inactive: 0 | inactive: -0.007 | inactive: -0.057 | inactive: 0.039 | inactive: -0.078 | inactive: 0.032 | inactive: -0.002 | inactive: -0.028 | inactive: -0.065 | inactive: 0.008 | inactive: -0.014 | inactive: 0.108 | inactive: -0.016 | inactive: 0.021
10 | TMED4 (UniProt Q7Z7H5) | inactive: 0.005 | inactive: 0.042 | inactive: -0.015 | inactive: 0.033 | inactive: 0.005 | inactive: -0.007 | inactive: -0.049 | inactive: -0.009 | inactive: -0.022 | inactive: -0.028 | inactive: -0.005 | inactive: -0.077 | inactive: 0.022 | inactive: -0.095 | inactive: -0.025 | inactive: -0.008 | inactive: 0.003 | inactive: 0.079 | inactive: -0.017 | inactive: 0.077
11 | TMX3 (UniProt Q96JJ7) | inactive: -0.042 | inactive: -0.064 | inactive: 0.042 | inactive: -0.004 | inactive: 0.019 | inactive: -0.026 | inactive: -0.009 | inactive: -0.028 | inactive: 0.001 | inactive: 0.002 | inactive: -0.072 | inactive: -0.051 | inactive: -0.011 | inactive: 0.014 | inactive: -0.081 | inactive: 0.083 | inactive: 0.001 | inactive: 0.015 | inactive: 0.007 | inactive: -0.034
12 | TMEM165 (UniProt Q9HC07) | inactive: 0.038 | inactive: 0.03 | inactive: 0.027 | inactive: 0.06 | inactive: -0.007 | inactive: 0.044 | inactive: 0.01 | inactive: -0.059 | inactive: -0.021 | inactive: 0.102 | inactive: -0.112 | inactive: -0.009 | inactive: -0.137 | inactive: -0.035 | inactive: -0.045 | inactive: -0.056 | inactive: 0.018 | inactive: -0.047 | inactive: 0.022 | inactive: 0.092
13 | TMEM189-UBE2V1 (UniProt I3L0A0) | inactive: 0.041 | inactive: 0.157 | – | inactive: -0.007 | inactive: -0.004 | inactive: -0.014 | inactive: -0.059 | inactive: -0.038 | inactive: 0 | inactive: 0.018 | inactive: -0.034 | inactive: -0.051 | inactive: -0.049 | inactive: -0.024 | inactive: -0.105 | inactive: -0.048 | inactive: -0.034 | inactive: 0.112 | inactive: 0.011 | inactive: -0.026
14 | TMEM161A (UniProt Q9NX61) | inactive: 0.011 | inactive: 0.027 | – | inactive: 0.039 | inactive: -0.108 | inactive: 0.03 | inactive: -0.106 | inactive: -0.029 | inactive: 0.106 | inactive: 0.058 | inactive: -0.021 | inactive: -0.148 | inactive: -0.072 | inactive: -0.167 | inactive: 0.009 | inactive: -0.033 | inactive: -0.01 | inactive: 0.051 | inactive: 0.075 | inactive: -0.106
15 | TMEM8A (UniProt Q9HCN3) | inactive: 0.059 | inactive: -0.099 | – | inactive: 0.108 | inactive: -0.042 | inactive: -0.039 | inactive: 0.004 | inactive: 0.02 | inactive: 0.037 | inactive: -0.191 | – | inactive: 0.188 | inactive: -0.093 | – | inactive: -0.153 | inactive: -0.008 | inactive: -0.038 | inactive: 0.085 | inactive: 0.065 | inactive: 0.121
16 | TMEM106C (UniProt Q9BVX2) | inactive: 0.085 | inactive: -0.112 | – | – | inactive: -0.16 | inactive: 0.322 | – | inactive: -0.193 | – | inactive: 0.082 | – | inactive: -0.075 | – | – | – | inactive: -0.01 | inactive: -0.358 | – | inactive: 0.121 | –
17 | TMEM70 (UniProt Q9BUB7) | inactive: 0.106 | inactive: 0.028 | – | inactive: 0.011 | inactive: 0.142 | inactive: -0.004 | inactive: -0.057 | inactive: -0.001 | inactive: 0.009 | inactive: 0 | inactive: -0.041 | inactive: -0.157 | inactive: -0.009 | inactive: -0.016 | inactive: 0.126 | inactive: -0.118 | inactive: -0.026 | inactive: 0.106 | inactive: -0.039 | inactive: 0.059

Reformatted: results already given.
Row	Target	log2 fold change (saracatinib)	log2 fold change (sotrastaurin)	log2 fold change (alvocidib)	log2 fold change (Tubastatin A)	log2 fold change [1]	log2 fold change (defactinib)	log2 fold change (rucaparib)	log2 fold change [2]	log2 fold change (encorafenib)	log2 fold change [3]	log2 fold change [4]	log2 fold change (filanesib)	log2 fold change (zotarolimus)	log2 fold change (idasanutlin)	log2 fold change (alisertib)	log2 fold change [5]	log2 fold change (gefitinib)	log2 fold change [6]	log2 fold change (lapatinib)	log2 fold change (pictilisib)
5	TM6SF1 (UniProt Q9BZW5)	inactive: -0.049	inactive: -0.003	inactive: -0.265	inactive: 0.117	inactive: 0.029	inactive: 0.051	–	inactive: -0.045	–	inactive: 0.062	inactive: 0.077	inactive: -0.113	inactive: -0.362	inactive: -0.19	inactive: 0.073	inactive: 0.05	inactive: 0.071	inactive: 0.03	inactive: 0.047	inactive: -0.081
8	TMEM38B (UniProt Q9NVV0)	inactive: 0.018	inactive: 0.018	inactive: 0.01	inactive: 0	inactive: -0.04	inactive: -0.036	inactive: 0.021	inactive: -0.01	inactive: -0.034	inactive: 0.068	inactive: -0.123	inactive: 0.073	inactive: -0.05	inactive: -0.019	inactive: -0.011	inactive: -0.03	inactive: 0.004	inactive: 0.123	inactive: -0.089	inactive: 0.011
9	TMEM97 (UniProt Q5BJF2)	inactive: 0.011	inactive: 0.087	inactive: 0.009	inactive: 0.091	inactive: 0.041	inactive: -0.021	inactive: 0	inactive: -0.007	inactive: -0.057	inactive: 0.039	inactive: -0.078	inactive: 0.032	inactive: -0.002	inactive: -0.028	inactive: -0.065	inactive: 0.008	inactive: -0.014	inactive: 0.108	inactive: -0.016	inactive: 0.021
